Patent publication US20230235374A1, “High Throughput Assays for Detecting Translation Readthrough Inducers” (The Trustees of the University of Pennsylvania, priority 2021, published 2023)
Results are given in words; binding and its absence hold for the method and conditions named. Some entries that bind do so weakly or less than the wild type.

The chains behind the UniProt entries cited, without tags or fusion partners. Residues count along the entry.
UniProt P05453, residues 166-685: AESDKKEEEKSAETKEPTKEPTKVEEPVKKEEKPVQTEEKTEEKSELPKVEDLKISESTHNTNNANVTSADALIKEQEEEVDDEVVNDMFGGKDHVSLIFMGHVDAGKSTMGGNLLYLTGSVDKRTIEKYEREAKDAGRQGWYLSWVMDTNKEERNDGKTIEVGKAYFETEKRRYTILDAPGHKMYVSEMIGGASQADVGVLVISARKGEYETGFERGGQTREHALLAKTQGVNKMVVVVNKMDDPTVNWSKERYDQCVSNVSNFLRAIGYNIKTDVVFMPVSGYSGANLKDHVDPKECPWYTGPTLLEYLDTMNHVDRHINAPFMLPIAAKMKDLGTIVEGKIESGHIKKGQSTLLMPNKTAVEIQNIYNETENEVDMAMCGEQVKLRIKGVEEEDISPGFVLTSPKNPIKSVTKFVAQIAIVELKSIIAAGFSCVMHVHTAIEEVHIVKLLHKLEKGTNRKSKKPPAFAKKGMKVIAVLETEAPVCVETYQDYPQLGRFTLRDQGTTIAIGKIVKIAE
UniProt P12385: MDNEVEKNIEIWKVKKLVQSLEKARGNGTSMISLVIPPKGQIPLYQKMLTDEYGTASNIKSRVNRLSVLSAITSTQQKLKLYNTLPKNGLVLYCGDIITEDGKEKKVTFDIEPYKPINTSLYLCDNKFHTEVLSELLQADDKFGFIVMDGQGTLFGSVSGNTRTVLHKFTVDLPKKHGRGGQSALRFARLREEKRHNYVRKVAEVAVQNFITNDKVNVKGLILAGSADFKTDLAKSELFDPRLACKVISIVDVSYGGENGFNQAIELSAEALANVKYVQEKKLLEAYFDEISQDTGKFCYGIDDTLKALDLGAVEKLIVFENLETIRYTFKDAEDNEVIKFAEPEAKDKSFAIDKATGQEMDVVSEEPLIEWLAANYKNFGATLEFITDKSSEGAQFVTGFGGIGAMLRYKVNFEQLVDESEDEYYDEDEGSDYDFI

Target: eRF3 (amino acid residues 166-685, expressed from pET-15b) (UniProt P05453)
Experiment: [3H]-AzAt photoaffinity labeling of eRF1, eRF3 alone and of the eRF1.eRF3.GDPNP ternary complex

- binding: binds
Substance: eRF1 (full-length, expressed from pET-15b) (from UniProt P12385 1-437)
